From the supplement of paper PMC10849652
Some of the results follow. Residues, ends and D or L forms follow the SMILES beside them. *: point of attachment. Cbz = O=C(OCc1ccccc1)*

Amino acid sequences for entries named in this document (tags omitted). A change or cut given only in a name is not applied to a line headed by its entry.
UniProt Q86X29: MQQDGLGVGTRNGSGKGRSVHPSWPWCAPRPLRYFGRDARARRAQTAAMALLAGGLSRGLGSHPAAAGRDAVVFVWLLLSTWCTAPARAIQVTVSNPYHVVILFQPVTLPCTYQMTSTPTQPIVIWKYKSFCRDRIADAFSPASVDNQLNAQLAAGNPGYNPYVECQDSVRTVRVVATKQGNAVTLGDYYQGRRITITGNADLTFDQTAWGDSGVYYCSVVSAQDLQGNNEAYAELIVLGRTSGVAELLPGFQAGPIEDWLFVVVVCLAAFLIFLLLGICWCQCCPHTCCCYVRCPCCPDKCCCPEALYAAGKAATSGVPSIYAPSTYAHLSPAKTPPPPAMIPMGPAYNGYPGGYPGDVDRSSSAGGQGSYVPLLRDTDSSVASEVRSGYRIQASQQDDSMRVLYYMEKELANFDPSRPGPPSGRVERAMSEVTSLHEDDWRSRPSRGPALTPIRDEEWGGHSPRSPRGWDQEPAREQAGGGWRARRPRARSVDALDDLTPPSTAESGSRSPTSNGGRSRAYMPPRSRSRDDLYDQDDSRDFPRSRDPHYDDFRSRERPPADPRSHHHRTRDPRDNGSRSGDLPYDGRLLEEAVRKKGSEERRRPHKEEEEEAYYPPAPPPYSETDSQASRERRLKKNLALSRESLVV
UniProt O43318: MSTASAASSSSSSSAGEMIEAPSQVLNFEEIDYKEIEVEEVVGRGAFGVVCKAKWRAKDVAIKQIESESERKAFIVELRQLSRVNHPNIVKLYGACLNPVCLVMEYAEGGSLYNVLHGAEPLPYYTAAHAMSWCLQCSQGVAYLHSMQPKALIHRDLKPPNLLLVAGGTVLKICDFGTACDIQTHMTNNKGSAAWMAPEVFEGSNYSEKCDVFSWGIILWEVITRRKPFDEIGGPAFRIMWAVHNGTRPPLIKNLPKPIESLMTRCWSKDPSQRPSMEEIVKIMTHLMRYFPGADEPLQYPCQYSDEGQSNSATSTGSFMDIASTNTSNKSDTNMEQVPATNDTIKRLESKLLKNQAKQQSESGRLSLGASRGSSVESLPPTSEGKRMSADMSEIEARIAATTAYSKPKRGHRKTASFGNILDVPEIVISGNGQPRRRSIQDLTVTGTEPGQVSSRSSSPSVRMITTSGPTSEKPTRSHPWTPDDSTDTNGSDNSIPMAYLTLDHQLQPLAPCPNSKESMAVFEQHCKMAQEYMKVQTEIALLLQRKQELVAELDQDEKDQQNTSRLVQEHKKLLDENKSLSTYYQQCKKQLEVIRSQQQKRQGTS
UniProt Q9ULX9: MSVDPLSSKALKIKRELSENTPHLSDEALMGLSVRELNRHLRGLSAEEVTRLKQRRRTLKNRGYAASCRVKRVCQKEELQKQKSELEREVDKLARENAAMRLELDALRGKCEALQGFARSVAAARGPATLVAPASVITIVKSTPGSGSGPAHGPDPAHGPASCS
UniProt P51884: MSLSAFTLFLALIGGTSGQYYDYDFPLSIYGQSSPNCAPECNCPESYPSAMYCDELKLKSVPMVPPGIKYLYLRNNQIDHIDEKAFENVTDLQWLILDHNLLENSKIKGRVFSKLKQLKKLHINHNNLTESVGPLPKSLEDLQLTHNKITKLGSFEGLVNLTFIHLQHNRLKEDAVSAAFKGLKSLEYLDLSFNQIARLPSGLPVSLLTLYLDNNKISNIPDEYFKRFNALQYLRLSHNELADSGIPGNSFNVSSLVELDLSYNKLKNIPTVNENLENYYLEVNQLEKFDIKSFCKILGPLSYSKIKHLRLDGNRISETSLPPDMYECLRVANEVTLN
UniProt Q5TCQ9: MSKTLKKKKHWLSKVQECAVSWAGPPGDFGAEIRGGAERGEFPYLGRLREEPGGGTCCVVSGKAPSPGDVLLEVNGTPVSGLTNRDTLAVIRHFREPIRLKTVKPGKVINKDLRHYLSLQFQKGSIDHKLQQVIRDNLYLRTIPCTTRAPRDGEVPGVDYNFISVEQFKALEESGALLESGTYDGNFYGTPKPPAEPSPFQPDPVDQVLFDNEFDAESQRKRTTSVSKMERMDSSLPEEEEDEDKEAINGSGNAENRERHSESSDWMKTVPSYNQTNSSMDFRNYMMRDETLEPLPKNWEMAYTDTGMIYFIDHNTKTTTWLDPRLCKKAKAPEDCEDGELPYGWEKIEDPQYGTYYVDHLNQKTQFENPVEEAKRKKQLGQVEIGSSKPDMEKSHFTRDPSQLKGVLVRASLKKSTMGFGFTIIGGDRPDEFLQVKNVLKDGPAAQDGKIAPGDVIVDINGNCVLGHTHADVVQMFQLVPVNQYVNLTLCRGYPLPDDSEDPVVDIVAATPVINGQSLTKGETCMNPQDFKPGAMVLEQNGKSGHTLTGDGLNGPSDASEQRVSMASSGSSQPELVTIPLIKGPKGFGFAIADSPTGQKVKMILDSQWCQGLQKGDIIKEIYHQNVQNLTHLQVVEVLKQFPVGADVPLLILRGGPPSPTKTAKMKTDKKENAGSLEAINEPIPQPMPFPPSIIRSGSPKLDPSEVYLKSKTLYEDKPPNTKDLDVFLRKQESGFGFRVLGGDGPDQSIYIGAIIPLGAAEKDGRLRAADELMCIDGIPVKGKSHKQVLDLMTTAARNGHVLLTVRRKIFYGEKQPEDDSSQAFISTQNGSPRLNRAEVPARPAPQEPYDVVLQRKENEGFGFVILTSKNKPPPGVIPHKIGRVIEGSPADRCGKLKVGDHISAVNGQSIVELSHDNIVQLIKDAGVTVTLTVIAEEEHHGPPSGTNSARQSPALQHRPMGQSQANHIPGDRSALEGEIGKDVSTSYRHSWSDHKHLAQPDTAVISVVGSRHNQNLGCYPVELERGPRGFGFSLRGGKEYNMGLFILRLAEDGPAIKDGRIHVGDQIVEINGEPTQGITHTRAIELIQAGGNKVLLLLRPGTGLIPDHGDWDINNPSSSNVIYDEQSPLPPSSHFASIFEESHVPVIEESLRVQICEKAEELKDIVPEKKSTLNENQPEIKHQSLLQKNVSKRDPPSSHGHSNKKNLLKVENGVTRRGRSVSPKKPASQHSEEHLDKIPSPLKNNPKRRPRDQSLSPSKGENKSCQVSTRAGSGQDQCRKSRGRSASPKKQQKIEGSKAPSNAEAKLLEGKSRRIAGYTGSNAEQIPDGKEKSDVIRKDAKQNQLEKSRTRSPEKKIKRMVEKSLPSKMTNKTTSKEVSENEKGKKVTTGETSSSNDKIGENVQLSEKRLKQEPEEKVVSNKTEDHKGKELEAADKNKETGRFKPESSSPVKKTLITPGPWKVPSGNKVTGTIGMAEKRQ
UniProt Q8TDW0: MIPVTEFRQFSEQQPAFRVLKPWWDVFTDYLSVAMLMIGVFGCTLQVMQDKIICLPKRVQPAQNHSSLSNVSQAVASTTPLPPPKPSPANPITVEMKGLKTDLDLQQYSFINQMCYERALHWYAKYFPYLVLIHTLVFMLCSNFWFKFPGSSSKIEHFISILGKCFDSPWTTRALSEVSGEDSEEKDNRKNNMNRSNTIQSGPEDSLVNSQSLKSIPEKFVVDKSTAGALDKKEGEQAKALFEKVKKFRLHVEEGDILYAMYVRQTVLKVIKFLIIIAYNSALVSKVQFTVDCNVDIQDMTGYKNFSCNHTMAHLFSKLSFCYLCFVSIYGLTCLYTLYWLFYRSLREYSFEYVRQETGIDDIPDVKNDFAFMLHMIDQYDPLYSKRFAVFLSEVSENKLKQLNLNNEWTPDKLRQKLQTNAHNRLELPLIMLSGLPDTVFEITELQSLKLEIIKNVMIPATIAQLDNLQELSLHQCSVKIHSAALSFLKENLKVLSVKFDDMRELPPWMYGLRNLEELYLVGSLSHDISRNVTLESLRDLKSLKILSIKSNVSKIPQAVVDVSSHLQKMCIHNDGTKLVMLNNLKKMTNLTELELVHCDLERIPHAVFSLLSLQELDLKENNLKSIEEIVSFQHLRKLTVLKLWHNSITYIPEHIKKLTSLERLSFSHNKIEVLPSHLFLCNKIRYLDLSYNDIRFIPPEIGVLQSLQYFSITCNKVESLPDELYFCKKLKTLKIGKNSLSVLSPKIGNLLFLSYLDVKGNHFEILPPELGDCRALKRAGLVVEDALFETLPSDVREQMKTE
UniProt P49137, whole entry, looked up: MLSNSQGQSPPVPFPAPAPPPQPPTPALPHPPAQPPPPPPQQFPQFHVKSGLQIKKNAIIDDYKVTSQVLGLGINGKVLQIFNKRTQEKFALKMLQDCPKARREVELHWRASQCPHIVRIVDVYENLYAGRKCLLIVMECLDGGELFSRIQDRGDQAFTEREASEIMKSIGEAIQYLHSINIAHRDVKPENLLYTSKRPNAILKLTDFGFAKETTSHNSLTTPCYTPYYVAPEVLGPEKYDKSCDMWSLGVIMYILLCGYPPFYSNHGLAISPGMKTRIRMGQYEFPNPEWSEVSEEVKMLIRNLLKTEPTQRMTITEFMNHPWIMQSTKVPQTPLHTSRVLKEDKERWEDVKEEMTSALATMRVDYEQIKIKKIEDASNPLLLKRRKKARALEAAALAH

Key:
Assay in all cases: log2 fold change, soluble protein after heating vs DMSO (PISA); higher = thermal stabilisation; K562 cells, 10 uM, 30 min; active = over 0.2 and 3.5 SD of the protein, either way, in both replicates (recomputed)
IRAK-1-4 Inhibitor I = compound: C1COCCN1CCN2C3=CC=CC=C3N=C2NC(=O)C4=CC(=CC=C4)[N+](=O)[O-] [IRAK-1-4 Inhibitor I]
Summary of the method: (§1)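 Soluble protein was defined as the supernatant after 21,000xg for 90 min. It came from K562 cells at 2×10^6 cells/mL given 10 μM compound for 30 min, heated in aliquots for 3 min across 48°C-58°C, pooled, and extracted in PBS with 0.5% NP-40 at 4°C, and was quantified by TMTpro 16plex LC-MS/MS with equalised channel sums. Thermal stability against control samples, from duplicates, is reported as log2 fold change.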

ibrutinib = compound: C=CC(=O)N1CCC[C@@H](n2nc(-c3ccc(Oc4ccccc4)cc3)c3c(N)ncnc32)C1 [ibrutinib]
Summary of the method: as §1

[1] = compound: CC(=O)c1cnc2ccc(-c3cc(Cl)c(O)c(Cl)c3)nc2c1N[C@H]1CC[C@H](CN(C)C)CC1
Summary of the method: as §1

ralimetinib = compound: CC(C)(C)Cn1c(N)nc2ccc(-c3[nH]c(C(C)(C)C)nc3-c3ccc(F)cc3)nc21 [ralimetinib]
Summary of the method: as §1

[2] = compound: CC(C)(O)CC(=O)NCCn1ccc2ncnc(Nc3ccc(Oc4cccc(C(F)(F)F)c4)c(Cl)c3)c21
Summary of the method: as §1

[3] = compound: CC(C)C1=C2N=C(C=C(N2N=C1)NCC3=CC=CC=C3)NCCCCCCN
Summary of the method: as §1

[4] = compound: CC(C)C[C@@H](C=O)NC(=O)[C@H](CC(C)C)NC(=O)[C@H](CC(C)C)NC(=O)OCc1ccccc1
Summary of the method: as §1

pinometostat = compound: CC(C)N(C[C@H]1O[C@@H](n2cnc3c(N)ncnc32)[C@H](O)[C@@H]1O)[C@H]1C[C@@H](CCc2nc3cc(C(C)(C)C)ccc3[nH]2)C1 [pinometostat]
Summary of the method: as §1

[5] = compound: CC1=C(C2=C(C=C1)C(=O)C3=CC=CC=C3N2CCCN)C
Summary of the method: as §1

[6] = compound: CC1=C(C=C(C=C1)NC(=O)C2=CC(=CC=C2)C(C)(C)C#N)NC3=CC4=C(C=C3)N=CN(C4=O)C
Summary of the method: as §1

[7] = compound: CC1=C(C=C(C=C1)NC(=O)C2=CC(=CC=C2)N(C)C)NC(=O)C3=CC=C(C=C3)O
Summary of the method: as §1

[8] = compound: CC1=CC=C(C=C1)SC2=C3C=C(SC3=CN=C2)C(=O)N
Summary of the method: as §1

[9] = compound: CC1=NC(=CC=C1)C2=C(N=C(N2)C(C)(C)C)C3=CC4=NC=CN=C4C=C3
Summary of the method: as §1

Nexturastat A = compound: CCCCN(Cc1ccc(C(=O)NO)cc1)C(=O)Nc1ccccc1 [Nexturastat A]
Summary of the method: as §1

vemurafenib = compound: CCCS(=O)(=O)Nc1ccc(F)c(C(=O)c2c[nH]c3ncc(-c4ccc(Cl)cc4)cc23)c1F [vemurafenib]
Summary of the method: as §1

[10] = compound: CCCS(=O)(=O)Nc1ccc(F)c(C(=O)c2c[nH]c3ncc(Cl)cc23)c1F
Summary of the method: as §1

[11] = compound: CCCc1cc(C)[nH]c(=O)c1CNC(=O)c1cc(-c2ccnc(N3CCN(C)CC3)c2)cc2c1cnn2C(C)C
Summary of the method: as §1

givinostat = compound: CCN(CC)Cc1ccc2cc(COC(=O)Nc3ccc(C(=O)NO)cc3)ccc2c1 [givinostat]
Summary of the method: as §1

barasertib = compound: CCN(CCCOc1ccc2c(Nc3cc(CC(=O)Nc4cccc(F)c4)[nH]n3)ncnc2c1)CCOP(=O)(O)O [barasertib]
Summary of the method: as §1

[12] = compound: CC1=C(C(CC(=O)N1)C2=CC=C(C=C2)C(F)(F)F)C(=O)NC3=C(C=C4C(=C3)C=NN4)F
Summary of the method: as §1

Target	log2 fold change (IRAK-1-4 Inhibitor I)	log2 fold change (ibrutinib)	log2 fold change [1]	log2 fold change (ralimetinib)	log2 fold change [2]	log2 fold change [3]	log2 fold change [4]	log2 fold change (pinometostat)	log2 fold change [5]	log2 fold change [6]	log2 fold change [7]	log2 fold change [8]	log2 fold change [9]	log2 fold change (Nexturastat A)	log2 fold change (vemurafenib)	log2 fold change [10]	log2 fold change [11]	log2 fold change (givinostat)	log2 fold change (barasertib)	log2 fold change [12]
LSR (UniProt Q86X29)	inactive: 0.053	inactive: 0.006	inactive: -0.139	inactive: -0.009	inactive: 0.058	inactive: 0.093	inactive: 0.086	inactive: -0.046	inactive: -0.008	inactive: -0.051	inactive: 0.016	inactive: -0.05	inactive: -0.05	inactive: -0.074	inactive: -0.028	inactive: -0.061	inactive: -0.019	inactive: -0.046	inactive: -0.016	–
MAP3K7 (UniProt O43318)	inactive: -0.123	inactive: -0.061	inactive: -0.075	inactive: 0.035	inactive: -0.207	inactive: -0.159	inactive: 0.05	inactive: 0.102	inactive: 0.006	inactive: -0.008	inactive: -0.039	inactive: 0.041	inactive: 0.019	inactive: 0.027	inactive: 0.042	inactive: 0.074	inactive: 0.008	inactive: 0.093	inactive: 0.079	–
MAFF (UniProt Q9ULX9)	inactive: 0.043	inactive: 0.05	inactive: 0.106	inactive: 0.035	–	–	inactive: 0.156	inactive: 0.21	–	inactive: 0.058	inactive: -0.039	–	inactive: -0.155	–	inactive: -0.032	–	inactive: -0.061	–	inactive: -0.009	inactive: 0.056
LUM (UniProt P51884)	inactive: -0.038	–	inactive: 0.078	inactive: -0.054	inactive: 0.263	inactive: 0.124	inactive: 0.023	inactive: -0.068	inactive: -0.256	inactive: -0.011	inactive: 0.403	inactive: 0.042	inactive: 0.061	inactive: -0.008	inactive: 0.069	inactive: -0.266	–	inactive: -0.108	–	–
MAGI3 isoform 1 (UniProt Q5TCQ9)	inactive: -0.047	inactive: -0.07	inactive: -0.116	–	inactive: 0.029	–	–	inactive: 0	inactive: -0.152	inactive: -0.135	–	–	inactive: -0.317	inactive: 0.357	inactive: -0.091	–	inactive: -0.224	–	inactive: 0.053	–
LRRC8C (UniProt Q8TDW0)	inactive: -0.156	–	inactive: -0.141	inactive: 0.312	inactive: 0.024	inactive: 0.009	inactive: 0.123	inactive: 0.271	–	inactive: -0.142	inactive: -0.107	inactive: -0.006	inactive: -0.128	inactive: 0.222	–	inactive: -0.027	inactive: -0.032	inactive: 0.031	–	inactive: -0.036
MARK2 (UniProt E9PC69)	inactive: -0.156	inactive: -0.047	active: -2.09	inactive: 0.031	inactive: -0.047	inactive: -0.581	inactive: 0.049	inactive: 0.078	inactive: 0.034	inactive: -0.011	inactive: -0.018	inactive: 0.094	inactive: 0.06	inactive: 0.025	inactive: -0.005	inactive: -0.034	–	inactive: 0.132	inactive: 0.034	–
MAPKAPK2 (UniProt P49137)	inactive: 0.039	inactive: -0.009	active: 0.267	inactive: 0.213	inactive: -0.03	inactive: -0.048	inactive: -0.022	inactive: -0.028	inactive: -0.009	inactive: 0.077	inactive: 0.082	inactive: -0.008	inactive: 0.019	inactive: -0.047	inactive: 0.074	inactive: 0.045	inactive: 0.038	inactive: 0.026	inactive: -0.001	–
